From article PMC9228767, “Structural and Functional Characterization of the Holliday Junction Resolvase RuvC from Deinococcus radiodurans” (Microorganisms, 2022)

Molecular target: T1, DrRuvC (Deinococcus radiodurans) (UniProt Q9RX75)
T1 sequence (looked up, limits assumed): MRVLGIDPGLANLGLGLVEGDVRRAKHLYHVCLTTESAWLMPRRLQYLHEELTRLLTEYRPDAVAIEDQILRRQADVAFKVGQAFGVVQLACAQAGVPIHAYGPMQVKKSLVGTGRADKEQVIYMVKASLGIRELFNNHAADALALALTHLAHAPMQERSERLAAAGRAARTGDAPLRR
Experiment: EMSA
Details: Mg2+, shift disappears completely above 1.5 mM; 50 mM Tris-HCl pH 7.0, 100 mM NaCl, 1 mM EDTA, 1% glycerol, 50 nM 5'-FAM DNA, on ice 30 min, 5% native PAGE; recombinant protein; protein details: N-terminal 6xHis (pET28a NdeI/BamHI); label: 5'-FAM on one strand; folded or branched DNA

CCACCAGAAACACGCCACAGTTTTTGTTTTGATTGCGAGGCCGTCCTACC / GGTAGGACGGCCTCGCAATCAAAACTTTTTGAGCACGCGAGATGTCAACG / CGTTGACATCTCGCGTGCTCAAAAAAAAAACAGATGCGGAGTGAAGTTCC / GGAACTTCACTCCGCATCTGTTTTTAAAAACTGTGGCGTGTTTCTGGTGG [HJ-0X]
binding result: no binding

Construct, isoform or probe ends are uncertain for at least one entry. No signal at the amounts used counts as a negative. Tags and fusion partners may be left off the protein sequences shown.
